Laboratory results from patent US20100286250A1, “FLUORINATED LIPIDS AND METHODS OF USE” (TUFTS UNIVERSITY, priority 2007, published 2010).
Some results were stated once for a whole list of compounds, not compound by compound. For at least one compound, name, drawing or mass did not settle the structure.

System: HeLa cells
Experiment: Toxicity experiment: viable HeLa cell counts over 5 d
Assay type: cell-based
Conditions: 100 μM, viable cells counted every 24 h

Question: `CCCCCCCCCCCCCCCC(=O)OCC(COP(=O)(O)OCCNc1ccc([N+](=O)[O-])c2nonc12)OC(=O)CCCCCCCCCCCCCCC` (stereo not shown) [Compound 5] was tested. Which “difference in cell counts after five days compared to controls” value did it give?
Answer: did not show any difference in counts
